Data as given in PubChem BioAssay AID652243 (Drosophila RNAi Screening Center, 2013)

- Assay: 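Knock-downs that decrease or increase androgen receptor reporter signal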 (primary screen)
- Cells: Drosophila S2R+ cells
- Reagent: long dsRNA against Drosophila genes
- Time to read-out: 72 h (48 h, then 24 h hormone)
- Treatment: synthetic androgen R1881 at 10 nM for 24 h
- Detection: 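Firefly light from an androgen-responsive reporter and Renilla control light per well, raw and unnormalised, for each of two replicates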
- Scale: firefly reporter light: higher = more light from androgen-responsive reporter; Renilla control light: higher = more constitutive control signal (cell number, transfection)
- Hit rule: 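Across duplicate plates, a knock-down whose log firefly/Renilla ratio shifted a set fold down or up from the GFP/LacZ control mean was a hit; the downward cut appears as both 1.5 and 3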
- Meaning of the calls: active = hit: reporter lowered or raised; inactive = no hit
In all, the deposit lists about 24,000 reagents; this is an unselected part of those with a known target gene and a result. Of all reagents, 246 (1%) were called active. 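Plates not normalised; calls are printed but the firefly/Renilla ratio behind them is not deposited; fold cut for lowering reported inconsistently.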 Raw values vary from plate to plate and are shown uncorrected. Reagents against one gene are numbered here. Not stated in the record: the amount of reagent.

no.	target	reagent no.	firefly reporter light, replicate 1	firefly reporter light, replicate 2	Renilla control light, replicate 1	Renilla control light, replicate 2	Call
1	CG7509 (GeneID 38579)	1	8.20e5	6.41e5	1.35e6	1.12e6	inactive
2	Cyp313a1 (GeneID 41759)	1	1.65e5	2.63e5	2.46e6	3.08e6	inactive
3	Cyp313a1 (GeneID 41759)	2	3.90e5	4.16e5	1.08e6	1.28e6	inactive
4	Orc1 (GeneID 35686)	1	4.69e5	4.80e5	1.65e6	3.22e6	inactive
5	CG42361 (GeneID 37936)	1	3.50e5	2.69e5	2.12e6	1.52e6	inactive
6	CG2617 (GeneID 35331)	1	1.50e5	1.62e5	1.13e6	9.93e5	inactive
7	CG2617 (GeneID 35331)	2	6.84e5	8.30e5	6.32e5	5.90e5	inactive
8	Ppt1 (GeneID 31805)	1	2.07e5	3.57e5	1.96e6	3.18e6	inactive
9	CG1812 (GeneID 33049)	1	1.05e5	69594	7.97e5	6.64e5	inactive
10	CG1812 (GeneID 33049)	2	3.57e5	3.28e5	5.53e5	6.01e5	inactive
11	Acp24A4 (GeneID 318936)	1	8.85e5	9.34e5	1.20e6	8.53e5	inactive
12	beat-Ic (GeneID 34945)	1	1.28e5	2.11e5	2.70e5	4.55e5	inactive
13	beat-Ic (GeneID 34945)	2	66085	55328	1.09e6	1.24e6	inactive
14	beat-Ic (GeneID 34945)	3	1.13e6	9.39e5	1.14e6	1.14e6	inactive
15	beat-Ic (GeneID 34945)	4	4.82e5	8.82e5	1.43e6	2.52e6	inactive
16	CG17549 (GeneID 35212)	1	8.13e5	8.13e5	1.91e6	2.30e6	inactive
17	CG7763 (GeneID 36235)	1	2.53e5	1.53e5	1.57e6	1.33e6	inactive
18	CG7582 (GeneID 43492)	1	2.00e5	2.36e5	1.94e6	2.34e6	inactive
19	CG14321 (GeneID 42134)	1	2.98e5	1.29e5	3.31e6	2.20e6	inactive
20	CG14321 (GeneID 42134)	2	4.42e5	2.75e5	9.94e5	5.34e5	inactive
21	Ak3 (GeneID 41318)	1	72720	1.01e5	2.00e6	2.07e6	inactive
22	Ak3 (GeneID 41318)	2	5.90e5	4.39e5	1.54e6	1.16e6	inactive
23	CG8562 (GeneID 38828)	1	58936	79453	1.14e6	1.11e6	inactive
24	CG8562 (GeneID 38828)	2	1.04e6	1.13e6	1.61e6	1.78e6	inactive
25	sky (GeneID 35359)	1	1.74e6	1.20e6	2.60e6	1.36e6	inactive
26	sky (GeneID 35359)	2	1.22e6	9.13e5	3.35e6	2.77e6	inactive
27	sky (GeneID 35359)	3	2.85e5	3.16e5	2.45e6	2.60e6	inactive
28	CG15201 (GeneID 32053)	1	5.34e5	5.76e5	2.43e6	2.69e6	inactive
29	prim (GeneID 36814)	1	1.10e5	1.25e5	1.71e6	1.71e6	inactive
30	jar (GeneID 42889)	1	1.26e5	1.71e5	1.55e6	2.17e6	inactive
31	CG14269 (GeneID 31312)	1	2.77e5	2.56e5	3.36e6	2.77e6	inactive
32	CG7299 (GeneID 34468)	1	2.58e5	2.30e5	1.20e6	1.41e6	inactive
33	CG7299 (GeneID 34468)	2	6.88e5	6.36e5	7.62e5	8.26e5	inactive
34	CG10560 (GeneID 43065)	1	1.95e5	1.53e5	2.10e6	2.09e6	inactive
35	CG4393 (GeneID 42764)	1	1.93e5	2.38e5	2.29e6	2.98e6	inactive
36	CG42258 (GeneID 32196)	1	5.64e5	5.79e5	2.98e6	3.14e6	inactive
37	CG42258 (GeneID 32196)	2	5.99e5	7.71e5	1.11e6	1.83e6	inactive
38	CG42258 (GeneID 32196)	3	4.99e5	4.80e5	7.43e5	9.28e5	inactive
39	CG42258 (GeneID 32196)	4	4.11e5	4.77e5	5.28e5	1.16e6	inactive
40	snRNA:U1:21D (GeneID 3772520)	1	7.95e5	8.33e5	1.49e6	1.82e6	inactive
41	CG14628 (GeneID 31057)	1	3.32e5	2.74e5	3.58e6	2.86e6	inactive
42	Rlip (GeneID 42484)	1	2.38e5	2.76e5	2.59e6	3.07e6	inactive
43	nol (GeneID 64867)	1	7.45e5	8.90e5	1.16e6	1.19e6	inactive
44	nol (GeneID 64867)	2	3.26e5	5.02e5	6.61e5	5.80e5	inactive
45	Uxs (GeneID 38911)	1	5.02e5	5.75e5	7.53e5	8.90e5	inactive
46	Uxs (GeneID 38911)	2	2.42e5	3.66e5	3.73e5	6.63e5	inactive
47	CG15468 (GeneID 31426)	1	2.23e5	2.56e5	3.46e6	2.25e6	inactive
48	CG12239 (GeneID 31509)	1	85680	93095	8.07e5	6.92e5	inactive
49	CG12239 (GeneID 31509)	2	6.01e5	5.13e5	2.09e6	1.20e6	inactive
50	Pfas (GeneID 33847)	1	7.97e5	9.35e5	2.25e6	1.45e6	inactive
51	CG14795 (GeneID 31109)	1	3.21e5	3.45e5	2.67e6	2.37e6	inactive
52	CG14795 (GeneID 31109)	2	3.99e5	4.89e5	4.31e5	9.59e5	inactive
53	U2af38 (GeneID 33201)	1	6.29e5	7.44e5	1.56e6	8.83e5	inactive
54	U2af38 (GeneID 33201)	2	3.61e5	3.69e5	9.27e5	7.99e5	inactive
55	Hrd3 (GeneID 42806)	1	53210	42265	4.25e5	4.36e5	inactive
56	Polr2G (GeneID 261631)	1	1.42e5	1.30e5	4.33e5	5.32e5	inactive
57	Ugt49C1 (GeneID 37421)	1	2.24e5	2.65e5	1.66e6	1.60e6	inactive
58	Ugt49C1 (GeneID 37421)	2	2.42e5	2.42e5	7.24e5	7.21e5	inactive

Quoted from the listing (7 entries):
no.	target	reagent no.	firefly reporter light, replicate 1	firefly reporter light, replicate 2	Renilla control light, replicate 1	Renilla control light, replicate 2	Call
27	sky (GeneID 35359)	3	2.85e5	3.16e5	2.45e6	2.60e6	inactive
28	CG15201 (GeneID 32053)	1	5.34e5	5.76e5	2.43e6	2.69e6	inactive
29	prim (GeneID 36814)	1	1.10e5	1.25e5	1.71e6	1.71e6	inactive
30	jar (GeneID 42889)	1	1.26e5	1.71e5	1.55e6	2.17e6	inactive
31	CG14269 (GeneID 31312)	1	2.77e5	2.56e5	3.36e6	2.77e6	inactive
32	CG7299 (GeneID 34468)	1	2.58e5	2.30e5	1.20e6	1.41e6	inactive
33	CG7299 (GeneID 34468)	2	6.88e5	6.36e5	7.62e5	8.26e5	inactive
